Percent effect of library compounds

The chains behind the UniProt entries cited, without tags or fusion partners.
UniProt P9WNZ1, whole entry: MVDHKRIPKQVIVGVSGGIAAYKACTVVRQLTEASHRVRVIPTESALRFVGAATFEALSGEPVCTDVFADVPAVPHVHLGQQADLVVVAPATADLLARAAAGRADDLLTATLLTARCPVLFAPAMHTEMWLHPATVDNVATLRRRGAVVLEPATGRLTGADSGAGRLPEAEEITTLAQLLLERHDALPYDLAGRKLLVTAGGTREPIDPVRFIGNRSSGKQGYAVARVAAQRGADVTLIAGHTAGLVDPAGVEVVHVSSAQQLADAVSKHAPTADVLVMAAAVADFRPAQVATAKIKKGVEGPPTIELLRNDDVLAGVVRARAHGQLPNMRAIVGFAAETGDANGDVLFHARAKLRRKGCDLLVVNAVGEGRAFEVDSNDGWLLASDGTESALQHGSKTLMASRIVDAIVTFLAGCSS

The values are deposited in ChEMBL (CHEMBL3988442, “University of Dundee, Small-Polar-MMV Screening Library” (2021)).

Results are given as percent effect.
How 0% and 100% were set is not recorded. Most values in the screen are low, and negative values occur.
Compounds were drawn at random from those tested, without regard to their results.

CoaBC: 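Coenzyme A biosynthesis protein CoaBC, Mycobacterium tuberculosis (UniProt P9WNZ1). Enzyme assay of CoaBC with a phosphate dye (Biomol Green) read at 650 nm. Tested at 30 µM. Direction is inferred from only a few compounds that gave an IC50; most scored high, so higher reads as stronger inhibition. Most strong results did not repeat in a second test. Size under these conditions: about 67,000 compounds, about 40 of them at 50% or above in at least one test.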
Leishmania in macrophages: 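Cell assay of Leishmania donovani living inside macrophages; the read-out is not stated. Tested at 30 µM. Higher reads as stronger inhibition (inferred: compounds with an IC50 in retests scored well above the rest). About 69,000 compounds were tested under these conditions; 1.5% (about 1,000) showed 50% or more at least once.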

CCO[C@@H]1CN(Cc2scnc2C)[C@@H]2CCCO[C@@H]21 read CoaBC: -4.206%.
O=C(Cn1cc(C(=O)O)cn1)Nc1c(Cl)cccc1Cl read CoaBC: 17.32%; Leishmania in macrophages: -22.84%.
CCc1ncc2c(n1)CN(C(C)C(=O)Nc1ccc(Cl)cn1)CC2 (centres unmarked) read CoaBC: 2.089%; Leishmania in macrophages: -4.704%.
[H][C@]12CC[C@@]3(N=C(C)NC3=O)[C@@]1([H])CN(C(=O)NCc1cccc(F)c1)C2 read Leishmania in macrophages: 7.677%.
Cc1nn(C)c(C)c1C1CCCN1CC(=O)Nc1nccs1 (centres unmarked) read CoaBC: 3.376%; Leishmania in macrophages: -5.025%.
COCCN(C)C[C@@H]1CN(C(=O)c2ccc(C)c(Cl)c2)C[C@@H]1CO read CoaBC: 1.324%; Leishmania in macrophages: 13.33%.
Cc1cc(N[C@H](CO)c2ccccc2)n2nc(C)cc2n1 read CoaBC: 2.36%; Leishmania in macrophages: 11.01%.
COc1ccc(C(=O)NCc2ccco2)nn1 read CoaBC: -0.5964%; Leishmania in macrophages: 8.504%.
COCc1csc(NC(=O)NCc2ccsc2)n1 read CoaBC: 2.917%; Leishmania in macrophages: 2.7%.
Cc1ccc(CC(=O)N2CCOCC2c2ncon2)cc1 (centres unmarked) read CoaBC: -1.786%; Leishmania in macrophages: 10.9%.
CCN(CC)CCN1CCO[C@H]2[C@@H](OCc3ccccn3)CC[C@@H]21 read CoaBC: -0.6452%.
[H][C@]12CCC[C@@]1(COCC1CCOCC1)CN(C(=O)c1ccncn1)C2 read Leishmania in macrophages: 11.4%.
CC(C)(C)OC(=O)NCCC(=O)NCC(O)c1cccc(F)c1 (centres unmarked) read CoaBC: 0.3636%; Leishmania in macrophages: 14.59%.
CC(C)N1CCC(C(=O)N2CCC(c3ccc(F)cc3)C2)CC1 (centres unmarked) read CoaBC: 6.048%; Leishmania in macrophages: 7.493%.
CC(C)N1CCC(CC(=O)NC(C(=O)O)c2cc(F)ccc2F)CC1 (centres unmarked) read CoaBC: 8.73%; Leishmania in macrophages: -7.107%.
O=C(Cn1cnc2sccc2c1=O)NCCCc1nnc2ccccn12 read CoaBC: 3.165%; Leishmania in macrophages: 17.69%.
CCc1c(C(=O)NCC(=O)OCC2CC2)cnn1-c1ccc(C)cc1 read CoaBC: 5.398%; Leishmania in macrophages: -2.161%.
CCS(=O)(=O)NC(CCSC)C(=O)Nc1cc(F)ccc1C (centres unmarked) read CoaBC: 1.665%; Leishmania in macrophages: 14.66%.
CC[C@H]1NCCC[C@]12CCC(=O)N2Cc1ccncc1 read CoaBC: 2.177%; Leishmania in macrophages: 14.24%.
Cc1ccc(Cl)c2c1C1(NC(=O)c3cccnc3N1)C(=O)N2 (centres unmarked) read CoaBC: 5.03%; Leishmania in macrophages: 11.3%.
Clc1cnccc1N1CCCC2(CCCOC2)C1 (centres unmarked) read CoaBC: -2.008%; Leishmania in macrophages: 22.08%.
[H][C@@]12COC[C@]1(c1nc(C)no1)CN(S(=O)(=O)N(C)C)C2 read Leishmania in macrophages: -6.796%.
C=C(C)CSc1nnc(CCNC(=O)OC(C)(C)C)o1 read CoaBC: 2.525%; Leishmania in macrophages: 5.686%.
CC(C)N1CC(C(=O)NCCOc2ccc3c(c2)OCO3)CC1=O (centres unmarked) read CoaBC: 5.175%; Leishmania in macrophages: 6.3%.
CC(C)(CN1CCC(Cc2cccc(C(=O)O)c2)C1)N1CCOCC1 (centres unmarked) read CoaBC: -0.5981%; Leishmania in macrophages: -12.33%.

The last 2 entries again:

{"structure": "CC(C)N1CC(C(=O)NCCOc2ccc3c(c2)OCO3)CC1=O", "stereo": "centres unmarked", "CoaBC": 5.175, "Leishmania in macrophages": 6.3}
{"structure": "CC(C)(CN1CCC(Cc2cccc(C(=O)O)c2)C1)N1CCOCC1", "stereo": "centres unmarked", "CoaBC": -0.5981, "Leishmania in macrophages": -12.33}